Results: article PMC8582390
These are yes or no findings as the source states them, for the method shown. Binding seen in cells or lysates may run through a third protein. Some entries that bind do so weakly or less than the wild type.

Sequences of proteins named here, by UniProt entry; tags and fusion partners are left off.
UniProt Q15910: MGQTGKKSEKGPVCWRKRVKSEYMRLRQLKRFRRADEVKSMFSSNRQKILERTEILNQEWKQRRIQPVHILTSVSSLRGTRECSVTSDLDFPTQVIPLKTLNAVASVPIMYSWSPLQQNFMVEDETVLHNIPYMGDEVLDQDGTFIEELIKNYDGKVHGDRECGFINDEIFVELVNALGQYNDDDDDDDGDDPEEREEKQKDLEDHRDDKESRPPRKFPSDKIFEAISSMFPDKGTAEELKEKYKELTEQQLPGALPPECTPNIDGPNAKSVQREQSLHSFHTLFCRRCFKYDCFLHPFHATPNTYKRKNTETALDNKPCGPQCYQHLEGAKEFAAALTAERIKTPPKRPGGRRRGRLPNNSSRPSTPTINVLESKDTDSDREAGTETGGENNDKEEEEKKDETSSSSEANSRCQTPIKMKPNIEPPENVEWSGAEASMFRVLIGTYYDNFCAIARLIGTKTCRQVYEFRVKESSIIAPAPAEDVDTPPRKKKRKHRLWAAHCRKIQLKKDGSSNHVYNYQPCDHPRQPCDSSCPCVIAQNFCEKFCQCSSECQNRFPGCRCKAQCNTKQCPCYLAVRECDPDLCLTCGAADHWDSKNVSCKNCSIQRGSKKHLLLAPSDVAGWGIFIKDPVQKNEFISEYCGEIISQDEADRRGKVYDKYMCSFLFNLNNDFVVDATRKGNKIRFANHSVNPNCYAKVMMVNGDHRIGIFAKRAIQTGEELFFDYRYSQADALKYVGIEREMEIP
UniProt Q04206: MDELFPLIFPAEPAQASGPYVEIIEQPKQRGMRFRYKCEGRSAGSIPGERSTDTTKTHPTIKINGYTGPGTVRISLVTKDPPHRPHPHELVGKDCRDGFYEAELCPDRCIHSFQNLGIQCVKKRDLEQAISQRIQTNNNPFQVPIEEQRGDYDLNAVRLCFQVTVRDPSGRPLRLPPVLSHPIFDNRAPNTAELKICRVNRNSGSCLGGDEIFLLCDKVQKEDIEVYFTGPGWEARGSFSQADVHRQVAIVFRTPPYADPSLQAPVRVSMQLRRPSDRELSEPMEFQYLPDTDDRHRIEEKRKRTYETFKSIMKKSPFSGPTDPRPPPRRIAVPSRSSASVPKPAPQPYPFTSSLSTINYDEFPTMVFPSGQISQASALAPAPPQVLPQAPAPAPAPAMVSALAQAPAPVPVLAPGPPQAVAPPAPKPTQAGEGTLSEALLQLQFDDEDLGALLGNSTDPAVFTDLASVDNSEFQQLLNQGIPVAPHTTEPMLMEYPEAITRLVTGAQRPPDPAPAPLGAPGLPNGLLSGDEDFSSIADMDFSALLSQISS
UniProt P40763: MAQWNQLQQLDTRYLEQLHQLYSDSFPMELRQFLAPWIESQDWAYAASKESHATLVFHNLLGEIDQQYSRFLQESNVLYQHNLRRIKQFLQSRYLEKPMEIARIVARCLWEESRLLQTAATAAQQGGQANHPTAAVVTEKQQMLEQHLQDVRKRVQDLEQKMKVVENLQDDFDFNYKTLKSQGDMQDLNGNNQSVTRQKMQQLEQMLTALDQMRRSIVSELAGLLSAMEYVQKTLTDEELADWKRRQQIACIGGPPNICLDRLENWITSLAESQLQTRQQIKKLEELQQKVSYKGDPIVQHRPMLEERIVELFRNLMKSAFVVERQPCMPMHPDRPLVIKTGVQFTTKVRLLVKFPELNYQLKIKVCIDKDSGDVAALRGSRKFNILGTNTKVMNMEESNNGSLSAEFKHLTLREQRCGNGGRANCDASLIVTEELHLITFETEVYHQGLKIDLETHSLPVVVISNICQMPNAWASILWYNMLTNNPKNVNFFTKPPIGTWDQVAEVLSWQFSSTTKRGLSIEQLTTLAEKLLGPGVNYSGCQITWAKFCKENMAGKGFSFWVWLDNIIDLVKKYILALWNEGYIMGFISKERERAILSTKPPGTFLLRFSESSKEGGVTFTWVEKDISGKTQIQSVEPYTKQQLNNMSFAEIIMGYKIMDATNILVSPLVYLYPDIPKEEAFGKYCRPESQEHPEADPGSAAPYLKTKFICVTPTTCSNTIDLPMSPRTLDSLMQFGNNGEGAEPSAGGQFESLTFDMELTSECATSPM
UniProt P08047: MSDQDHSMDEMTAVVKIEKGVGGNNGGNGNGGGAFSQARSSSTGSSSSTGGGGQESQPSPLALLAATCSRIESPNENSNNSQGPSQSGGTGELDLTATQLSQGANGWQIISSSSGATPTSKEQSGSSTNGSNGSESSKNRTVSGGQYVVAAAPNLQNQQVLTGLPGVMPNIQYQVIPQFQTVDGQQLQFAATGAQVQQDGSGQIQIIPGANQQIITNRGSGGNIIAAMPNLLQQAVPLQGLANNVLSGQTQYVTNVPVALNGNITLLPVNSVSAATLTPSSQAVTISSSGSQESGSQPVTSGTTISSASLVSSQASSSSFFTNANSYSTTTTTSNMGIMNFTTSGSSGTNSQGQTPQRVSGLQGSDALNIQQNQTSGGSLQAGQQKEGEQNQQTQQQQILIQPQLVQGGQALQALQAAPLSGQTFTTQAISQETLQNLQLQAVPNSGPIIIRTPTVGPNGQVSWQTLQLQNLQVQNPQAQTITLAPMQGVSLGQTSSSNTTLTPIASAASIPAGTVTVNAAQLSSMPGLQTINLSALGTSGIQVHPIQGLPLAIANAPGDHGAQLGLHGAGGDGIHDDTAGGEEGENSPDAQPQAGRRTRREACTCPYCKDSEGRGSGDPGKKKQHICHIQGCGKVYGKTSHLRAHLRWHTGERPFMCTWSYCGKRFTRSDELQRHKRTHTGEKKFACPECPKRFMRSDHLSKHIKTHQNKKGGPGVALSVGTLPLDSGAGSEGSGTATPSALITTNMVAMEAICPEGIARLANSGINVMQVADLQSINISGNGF

Target: Enhancer of zeste homolog 2 (human (endogenous in PANC-1, MIA PaCa-2, Capan-1)) (UniProt Q15910)
Test: co-IP; nuclear proteins (100 μg) of PANC-1, MIA PaCa-2 and Capan-1 cells precipitated with IP-grade EZH2 antibody or IgG for 16 h at 4 °C, protein A agarose beads, PBS washes, immunoblot; cells with or without 5-HT (10 μM, 96 h)

Substance | binding
NF-κB P65 (from UniProt Q04206 1-551) | binds
STAT3 (from UniProt P40763 1-770) | binds
Sp1 (from UniProt P08047 1-785) | binds
